{"source": "PubChem BioAssay AID540303", "about": "(National Center for Advancing Translational Sciences (NCATS), 2011)", "note": "Among all 330,000 compounds or so, about 1,000 (0.3%) were called active. Inconclusive means that the source gave no clear call. Such entries were picked first, then a sample of the others. Calls come from the whole dose curve; as a rule, active = well fitted inhibition curve with a large enough effect; inconclusive = small, poorly fitted or top-dose-only effect; inactive = no such curve, though single readings can be large or run the other way; tested in mouse RAW 264.7 cells. A potency beside an inconclusive call is a rough fit, not a confirmed value. Potency is the fitted concentration of half-maximal effect."}
{"test": "qHTS for Inhibitors of Cell Surface uPA Generation; note: nearly all actives have a fitted effect of over 55% in size", "conditions": "cell surface uPA generation assay; series mostly up to 38.3 µM", "in_short": "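Validation set in qHTS format. RAW 264.7 cells were pre-plated overnight and then exposed to compounds (up to 38.3 uM final) for 24 h at 37 C in 5% CO2, followed by a luminescent ATP-Lite measurement.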"}
{"smiles": "COC(=O)C1=C(c2ccccc2OCc2ccccc2)C[C@@H]2CC[C@H]1N2C(=O)NCc1ccc(N(C)C)cc1", "Potency": "inconclusive: 7.94 µM [inhibitor, single point]"}
{"smiles": "C=CC(=O)Nc1sc2c(c1C(N)=O)CCCC2", "Potency": "inconclusive: 12.6 µM [inhibitor, single point]"}
{"smiles": "CC1(NC(=O)CC(c2ccccc2)(c2ccccc2)c2ccccc2)CCN(CCCc2ccccc2)C1=O", "note": "(stereo not given)", "Potency": "inconclusive: 12.6 µM [inhibitor, single point]"}
{"smiles": "Oc1ccc(CN2CCCCC2)c2cccnc12", "Potency": "inconclusive: 11.2 µM [inhibitor, single point]"}
{"smiles": "CCc1cn(C2CC(O)C(CO)O2)c(=O)[nH]c1=O", "note": "(stereo not given)", "Potency": "active: 10 µM"}
{"smiles": "CCCC#Cc1ccc2c(c1)COc1c3ccccc3nn1-2", "Potency": "inconclusive: 11.2 µM [inhibitor, single point]"}
{"smiles": "Cc1ccc(N)c(C)c1", "Potency": "inactive"}
{"smiles": "CC(C)(C)C(=O)Nc1ccc(-c2csnn2)cc1", "Potency": "inconclusive: 12.6 µM [inhibitor, partial curve, poor fit]"}
{"smiles": "Cn1c(O)c(C=NCCc2c[nH]c3ccccc23)c(=O)n(C)c1=O", "Potency": "inactive"}
{"smiles": "Cc1cc(O)c2c(c1)C(=O)C13C(=C2O)C(=O)[C@H]2[C@@H](O)[C@@H]1[C@H]1[C@H](O)[C@@H]3C(=O)C3=C(O)c4c(O)cc(C)cc4C(=O)C312", "note": "(stereo not given in full)", "Potency": "inconclusive: 22.4 µM [inhibitor, single point]"}
{"smiles": "CC1(C)CC(N2CCCC2)=CC(=[N+]2CCCCCC2)C1", "Potency": "inconclusive: 7.08 µM [inhibitor, partial curve, poor fit]"}
{"smiles": "COC(=O)C1=C(c2ccc(F)cc2OCc2ccccc2)C[C@@H]2CC[C@H]1N2C(=O)NCc1ccc(Br)cc1", "Potency": "inconclusive: 8.91 µM [inhibitor, single point]"}
{"smiles": "CC1CCN(C(=O)CCl)CC1", "Potency": "inconclusive: 7.08 µM [inhibitor, single point]"}
{"smiles": "Cc1ccc(N/C=C2/Sc3ccccc3NC2=O)cc1", "Potency": "inconclusive: 3.16 µM [inhibitor, full curve, poor fit]"}
{"smiles": "CCC(COC)Oc1cc(NCc2ccccc2)c2ncn(C(C)C)c2c1", "note": "(stereo not given)", "Potency": "inconclusive: 12.6 µM [inhibitor, single point]"}
{"smiles": "COc1ccc(CCNC(=O)c2c(N)n(CCN3CCOCC3)c3nc4ccccc4nc23)cc1OC", "Potency": "inactive"}
{"smiles": "COC(=O)C1=C(c2cccc(OCc3ccccc3)c2)C[C@@H]2CC[C@H]1N2C(=O)NCc1ccc(C(F)(F)F)cc1", "Potency": "inconclusive: 8.91 µM [inhibitor, partial curve, poor fit]"}
{"smiles": "Cc1ccc2c(c1)NP(=S)(Oc1ccccc1)N2", "note": "(stereo not given)", "Potency": "inactive"}
{"smiles": "Cc1cc(N(CCCl)CCCl)ccc1/C=N/N=C(\\N)c1cnccn1", "Potency": "inactive"}
{"smiles": "Clc1ccc(C(c2ccc(Cl)cc2)n2cc[n+](CC(OCc3ccc(Cl)cc3Cl)c3ccc(Cl)cc3Cl)c2)cc1", "note": "(stereo not given)", "Potency": "inconclusive: 12.6 µM [inhibitor, single point]"}
{"smiles": "COC(=O)C1=C(c2ccc(F)cc2OCc2ccccc2)C[C@@H]2CC[C@H]1N2C(=O)NCc1ccc(N(C)C)cc1", "Potency": "inconclusive: 6.31 µM [inhibitor, partial curve, poor fit]"}
{"smiles": "COC(=O)C1=C(c2cccc(OCc3ccccc3)c2)C[C@@H]2CC[C@H]1N2C(=O)NNCc1ccccc1", "Potency": "inconclusive: 22.4 µM [inhibitor, single point]"}
{"smiles": "COC(=O)C1=C(c2ccc(OC(F)(F)F)cc2)C[C@@H]2CC[C@H]1N2C(=O)NCc1cccc2ccccc12", "Potency": "inconclusive: 1 µM [inhibitor, partial curve, poor fit]"}
{"smiles": "Cc1ccccc1-c1nc(C(=O)NCC2CCCO2)cc2c1[nH]c1ccccc12", "note": "(stereo not given)", "Potency": "inconclusive: 28.2 µM [inhibitor, single point]"}
{"smiles": "O=C(CF)NC(NC(=S)Nc1ccccc1O)C(Cl)(Cl)Cl", "note": "(stereo not given)", "Potency": "inconclusive: 10 µM [inhibitor, partial curve, poor fit]"}
{"smiles": "COC(=O)C1=C(c2cccc(OCc3ccccc3)c2)C[C@@H]2CC[C@H]1N2C(=O)NCCOc1ccccc1Cl", "Potency": "inconclusive: 11.2 µM [inhibitor, partial curve, poor fit]"}
{"smiles": "COc1cccc(NC(=S)NC(=O)c2cncc(Br)c2)c1", "Potency": "inconclusive: 14.1 µM [inhibitor, single point]"}
{"smiles": "COc1ccc(-c2csc(NC(=O)C3CCN(C(=O)c4ccc(F)cc4)CC3)n2)cc1OC", "Potency": "inconclusive: 14.1 µM [inhibitor, single point]"}
{"smiles": "OCC[n+]1c2ccccc2nc2ccc(N3CCOCC3)cc21", "Potency": "inactive"}
{"smiles": "CCc1ccc2[nH]c(=O)c(CN(Cc3ccc4c(c3)OCO4)Cc3nnnn3C3CCCC3)cc2c1", "Potency": "inconclusive: 11.2 µM [inhibitor, single point]"}
